Results are given in words; binding and its absence hold for the method and conditions named. In cells and extracts the contact can be indirect.

Sequences of proteins named here, by UniProt entry; tags and fusion partners are left off.
UniProt D3ZGB1: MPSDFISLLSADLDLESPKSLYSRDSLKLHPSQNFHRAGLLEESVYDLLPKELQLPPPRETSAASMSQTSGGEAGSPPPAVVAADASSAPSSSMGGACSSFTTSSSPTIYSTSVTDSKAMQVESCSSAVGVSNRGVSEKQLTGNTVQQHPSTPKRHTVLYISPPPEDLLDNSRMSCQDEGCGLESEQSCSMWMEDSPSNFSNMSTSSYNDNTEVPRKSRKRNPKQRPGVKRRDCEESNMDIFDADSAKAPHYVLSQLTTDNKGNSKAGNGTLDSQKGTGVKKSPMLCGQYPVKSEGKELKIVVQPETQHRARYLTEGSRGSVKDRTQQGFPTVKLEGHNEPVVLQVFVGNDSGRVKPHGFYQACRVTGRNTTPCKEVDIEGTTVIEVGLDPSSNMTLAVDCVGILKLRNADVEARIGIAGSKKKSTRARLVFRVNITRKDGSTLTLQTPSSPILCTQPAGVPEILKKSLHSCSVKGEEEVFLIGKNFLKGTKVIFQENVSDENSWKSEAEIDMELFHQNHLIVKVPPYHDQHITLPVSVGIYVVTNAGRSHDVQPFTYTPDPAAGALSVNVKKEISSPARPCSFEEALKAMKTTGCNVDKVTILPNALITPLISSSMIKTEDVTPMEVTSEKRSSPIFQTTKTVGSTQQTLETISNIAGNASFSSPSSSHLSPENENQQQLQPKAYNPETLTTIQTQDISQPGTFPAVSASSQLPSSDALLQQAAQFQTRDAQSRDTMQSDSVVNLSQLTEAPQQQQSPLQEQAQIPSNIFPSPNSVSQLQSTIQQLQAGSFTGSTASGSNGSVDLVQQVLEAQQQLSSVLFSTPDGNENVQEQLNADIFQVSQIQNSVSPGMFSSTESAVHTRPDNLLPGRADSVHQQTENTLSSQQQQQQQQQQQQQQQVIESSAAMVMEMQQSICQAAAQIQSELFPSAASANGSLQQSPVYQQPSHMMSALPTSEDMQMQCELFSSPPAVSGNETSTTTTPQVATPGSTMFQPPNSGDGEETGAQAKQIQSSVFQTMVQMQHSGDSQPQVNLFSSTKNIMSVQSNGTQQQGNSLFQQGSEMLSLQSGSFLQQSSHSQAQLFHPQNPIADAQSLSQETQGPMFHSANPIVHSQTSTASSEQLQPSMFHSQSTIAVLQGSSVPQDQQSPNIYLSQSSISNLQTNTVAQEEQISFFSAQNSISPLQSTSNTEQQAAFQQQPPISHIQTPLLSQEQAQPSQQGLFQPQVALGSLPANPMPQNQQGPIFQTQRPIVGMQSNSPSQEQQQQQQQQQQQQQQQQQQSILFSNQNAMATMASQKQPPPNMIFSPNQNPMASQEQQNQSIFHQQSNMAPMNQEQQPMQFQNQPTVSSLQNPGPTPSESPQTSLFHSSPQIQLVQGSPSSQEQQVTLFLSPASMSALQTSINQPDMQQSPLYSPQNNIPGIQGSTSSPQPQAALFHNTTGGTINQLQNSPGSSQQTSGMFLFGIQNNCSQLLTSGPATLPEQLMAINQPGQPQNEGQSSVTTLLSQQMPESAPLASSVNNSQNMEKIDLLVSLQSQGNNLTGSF
UniProt O35800: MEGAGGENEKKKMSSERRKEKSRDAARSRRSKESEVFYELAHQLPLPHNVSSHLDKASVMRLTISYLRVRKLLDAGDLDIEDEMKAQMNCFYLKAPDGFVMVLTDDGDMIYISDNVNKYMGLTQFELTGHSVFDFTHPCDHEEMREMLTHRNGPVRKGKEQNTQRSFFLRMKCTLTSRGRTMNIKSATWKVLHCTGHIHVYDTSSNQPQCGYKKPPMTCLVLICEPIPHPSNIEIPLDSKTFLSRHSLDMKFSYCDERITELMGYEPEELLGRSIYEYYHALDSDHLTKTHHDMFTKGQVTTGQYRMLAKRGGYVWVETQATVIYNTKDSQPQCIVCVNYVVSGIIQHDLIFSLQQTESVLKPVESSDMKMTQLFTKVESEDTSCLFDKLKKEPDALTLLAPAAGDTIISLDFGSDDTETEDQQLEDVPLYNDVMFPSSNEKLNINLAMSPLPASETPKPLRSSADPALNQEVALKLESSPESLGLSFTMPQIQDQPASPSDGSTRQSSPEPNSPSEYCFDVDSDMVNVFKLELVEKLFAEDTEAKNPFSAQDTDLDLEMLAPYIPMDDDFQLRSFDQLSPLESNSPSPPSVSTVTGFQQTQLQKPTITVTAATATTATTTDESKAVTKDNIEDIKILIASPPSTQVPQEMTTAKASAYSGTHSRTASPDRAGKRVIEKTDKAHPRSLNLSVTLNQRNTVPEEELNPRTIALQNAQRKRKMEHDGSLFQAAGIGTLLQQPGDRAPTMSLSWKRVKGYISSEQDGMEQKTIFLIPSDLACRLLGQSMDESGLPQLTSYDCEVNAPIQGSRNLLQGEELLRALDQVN

Assay [1] addresses nuclear factor of activated T cells 5 (NFAT5) (rat (endogenous in primary hippocampal neurons)) (UniProt D3ZGB1). In words: co-IP; endogenous proteins in lysate of primary hippocampal neurons collected 6 h after OGD; RIPA buffer (50 mM Tris-HCl pH 7.4, 150 mM NaCl, 0.5% Triton X-100, 1 mM PMSF); precleared with protein A/G Sepharose, immunoprecipitated with antibodies against NFAT5, HIF-1α or IgG for 12 h at 4°C; four washes with RIPA buffer; western blot; both orientations. For orientation: A western blot detects proteins with antibodies after separation by electrophoresis.

Assay [2] has as its target hypoxia-inducible factor-1α (HIF-1α) (rat (endogenous in primary hippocampal neurons)) (UniProt O35800). Described as above.

With “hypoxia-inducible factor-1α (HIF-1α) (from UniProt O35800 1-825)”, the binding entry in assay [1] is on record as “no binding”.
As to “nuclear factor of activated T cells 5 (NFAT5) (from UniProt D3ZGB1 1-1548)”, the binding result in assay [2] is “no binding”.

Source of the values: PMC6923656.
